In US6417159B1 (Queen's University at Kingston, priority 1996, dated 2002):
Results are given in words; binding and its absence hold for the method and conditions named. Some binding calls cover weakened binding; strength is not graded here.

Protein sequences, listed by entry. Tags and fused reporters are not part of them. Residues count along the entry.
UniProt P07174, residues 30-425: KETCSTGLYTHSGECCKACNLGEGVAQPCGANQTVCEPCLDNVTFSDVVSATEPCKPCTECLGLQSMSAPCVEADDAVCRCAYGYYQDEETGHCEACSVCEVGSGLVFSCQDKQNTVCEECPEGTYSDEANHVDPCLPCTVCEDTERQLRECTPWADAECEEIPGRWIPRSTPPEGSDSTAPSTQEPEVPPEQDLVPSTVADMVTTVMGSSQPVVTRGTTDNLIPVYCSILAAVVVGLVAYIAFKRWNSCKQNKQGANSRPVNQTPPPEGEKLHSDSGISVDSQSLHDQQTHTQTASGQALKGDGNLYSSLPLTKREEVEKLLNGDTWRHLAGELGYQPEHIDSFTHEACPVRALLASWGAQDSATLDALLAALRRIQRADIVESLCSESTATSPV
UniProt P01139, residues 122-239: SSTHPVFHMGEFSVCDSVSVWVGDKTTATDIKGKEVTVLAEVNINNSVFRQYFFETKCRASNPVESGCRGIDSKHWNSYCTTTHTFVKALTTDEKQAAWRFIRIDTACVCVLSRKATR

Target: p75NTR (common neurotrophin receptor) on PC12 cells (rat) (UniProt P07174)
Assay: affinity cross-linking of [125I]NGF on intact PC12 cells (EDC/NHS), SDS-PAGE, autoradiography

binding: binds
Substance: [125I]NGF (nerve growth factor, radioiodinated) (from UniProt P01139 122-239) (ligand)
